From patent US20230192896A1 come the findings set out here.

Residue numbers refer to the chain shown, from its start. These are yes or no findings as the source states them, for the method shown. For some of these results: Binding calls can cover weak binding; strength is not graded here.

Assay [1] has as its target FIX zymogen (non-activatable FIX) (human). Nature of the assay: BLI; class meaning: paragraph 914.
The target is the same in assay [2]. Description: BLI, IgG on AHQ sensor, 100 nM antigen.
Assay [3] has as its target zymogen FIX which contains the activation peptide from FX (FIX+FX AP). Nature of the assay: BLI, antibody on AHQ sensor, 250 nM FX variant.
The target in assay [4] is activated FX which retains the activation peptide (FXa+AP). Description: BLI, antibody on AHQ sensor, 250 nM FX variant.
In assay [5] the target is zymogen FX with the activation peptide lacking (FX-AP). Description: BLI, antibody on AHQ sensor.
For assay [6], the target named is FIX zymogen (non-activatable FIX) (human). Nature of the assay: BLI, IgG on AHQ sensor.

B1: BIIB-9-578 (antibody, V domains shown)
VH: QLQLQESGPGLVKPSETLSLTCTVSGGSISSSSYYWGWIRQPPGKGLEWIGSISYSGSTYYNPSLKSRVTISVDTSKNQFSLKLSSVTAADTAVYYCARDKYQDYSFDIWGQGTMVTVSS
VL: DIQMTQSPSSVSASVGDRVTITCRASQGIDSWLAWYQQKPGKAPKLLIYAASSLQSGVPSRFSGSGSGTDFTLTISSLQPEDFATYYCQQANFLPFTFGGGTKVEIK
As for B1, the binding entry in assay [1] and in assay [2] was “binds” throughout.

B2: BIIB-9-631 (antibody, V domains shown)
VH: QVQLVQSGAEVKKPGASVKVSCKASGYTFTSYYMHWVRQAPGQGLEWMGIINPSGGSTSYAQKFQGRVTMTRDTSTSTVYMELSSLRSEDTAVYYCARAENRGDYEAWGQGTLVTVSS
VL: B1 VL with D30S, S31R, A91R, N92T, F93S, L94F, F96L
In the case of B2, the binding entry in assay [1] and in assay [2] was “binds” throughout.

B3: BIIB-12-917 (antibody, V domains shown)
VH: EVQLVQSGAEVKKPGESLKISCKGSGYSFTTYWIGWVRQMPGKGLEWMGIIYPGDSDTRYSPSFQGQVTISADKSISTAYLQWSSLKASDTAMYYCARGRFRPRGRFDYWGQGTLVTVSS
VL: EIVMTQSPATLSVSPGERATLSCRASQSVSSNLAWYQQKPGQAPRLLIYGASTRATGIPARFSGSGSGTEFTLTISSLQSEDFAVYYCQQLFNHPPTFGGGTKVEIK
For B3, the values for the binding result in assay [3], in assay [4] and in assay [5] were “binds”, “binds” and “no binding (tested: 250 nM)”, respectively.

B4: BIIB-9-397 (antibody, V domains shown)
VH: QVQLQESGPGLVKPSETLSLTCAVSGYSISSGYYWAWIRQPPGKGLEWIGSIYHSGSTYYNPSLKSRVTISVDTSKNQFSLKLSSVTAADTAVYYCARDVWYVGGFDPWGQGTLVTVSS
VL: DIQMTQSPSSLSASVGDRVTITCQASQDISNYLNWYQQKPGKAPKLLIYDASNLETGVPSRFSGSGSGTDFTFTISSLQPEDIATYYCQQSDDHPPTFGGGTKVEIK
Regarding B4, the binding result in assay [1], in assay [6] and in assay [2] was “binds” each time.
